# Source: the supplement of paper PMC3334620
# Whole data set: some 33,000 sequences, median “E-score (-0.5 to 0.5)” near -8e-05, cut for the highest 2% near 0.23. Some of the results follow.
# Molecular target: T1, Nrg2 (UniProt P38082)
# T1 sequence: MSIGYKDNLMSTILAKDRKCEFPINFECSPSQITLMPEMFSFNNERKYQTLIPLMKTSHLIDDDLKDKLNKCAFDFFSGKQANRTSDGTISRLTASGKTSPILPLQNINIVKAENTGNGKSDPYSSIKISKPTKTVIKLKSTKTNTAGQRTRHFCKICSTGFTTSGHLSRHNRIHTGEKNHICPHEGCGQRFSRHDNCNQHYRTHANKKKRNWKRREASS
# Assay: PBM E-score (8-mer binding enrichment) (E-score (-0.5 to 0.5)); higher = stronger / more preferred TF binding
# Conditions: protein concentration: 100 nM; construct: GST-full length
# Procedure, shortened: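 GST-tagged yeast TFs (full-length or DNA-binding domain) were made by PURExpress in vitro transcription/translation and applied at about 100-200 nM to universal all-10-mer Agilent arrays. The arrays were made double-stranded by primer extension, on fresh or once-stripped slides. Bound protein was detected with fluorescent anti-GST, and scans were normalised with masliner. Each ungapped eight-base word, pooled with its reverse complement, received an E-score (modified Wilcoxon-Mann-Whitney statistic) from the Universal PBM Analysis Suite.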
row,Sequence,PBM E-score
1,GTTGTATA,0.00908
2,AAGTAGCT,-0.107
3,AGAACAAG,0.223
4,AATGATCC,-0.182
5,AGTTAGAG,0.108
6,CTGTTTCC,-0.208
7,CACGTGCC,0.0142
8,CCAAGCAA,0.0813
9,GTTAGTGA,-0.0863
10,AGAATTGA,-0.0242
11,AAAGTCGG,-0.161
12,ACGTGTGC,-0.103
13,AGGTCTGA,0.0872
14,AGCAGTGG,0.00894
15,GACGGAAC,-0.186
16,TTATCCAA,0.152
17,AACGCCGA,-0.0271
18,CTGCGACC,-0.103
19,GGACAATA,0.239
20,ATAGCGGA,-0.112
21,CTAGCTTA,0.0567
22,AGCGGAAC,-0.046
23,GACAGCGC,0.0161
24,CCTTGCCG,-0.0398
25,AGAAAAAT,0.045

row,Sequence,PBM E-score
1,ACTCGAGG,0.162
2,CTTTCATC,0.0159
3,TCATACGA,0.0412
4,CGCGGCCC,0.0754
5,GAGCTGAC,0.146
6,CTTTAGCA,-0.112
7,CGGAAGAC,-0.0798
8,AAGTTGGA,0.134
9,ACATGTGG,0.142
10,GCCTTAAA,-0.0715
11,ACGCCCAT,0.0455
12,CACTATTA,0.132
13,CATCAGAC,0.119
14,CGGTTTAA,-0.132
15,CGTTAGGA,0.0961
16,GCAGAAAA,0.139
17,CCATGAGG,-0.0123
18,CGATATTA,0.23
19,ACCCATGG,0.084
20,ATTACTGC,0.214
21,AGCTCCCA,-0.0291
22,GTAGAGAA,0.0653
23,CCAACTAA,0.0905
24,AAAAACTC,-0.0343
25,CCAGAATA,0.127

row,Sequence,PBM E-score
1,AACATCTA,-0.068
2,ACCGTGCA,-0.0396
3,CCACTTCA,0.104
4,CACGGTCC,-0.211
5,ACCCTTCC,0.107
6,CAGATTCA,-0.172
7,GTGGTAAA,-0.0868
8,GATTCTGC,0.188
9,ACTTCGGC,-0.0688
10,ATCAAACG,0.0157
11,GCGATCGA,0.186
12,GCTAATTA,0.101
13,ATCCCGAT,0.115
14,ATTGAAAA,0.199
15,CTTGTGGC,-0.12
16,ATTATAAT,0.191
17,ACCTCCGT,-0.0785
18,GTACGTTA,-0.00038
19,CACTTAAC,-0.104
20,GGGTCTTA,0.0557
21,CACGGCAC,-0.238
22,ACAATCAG,-0.0138
23,ACGCCAGT,-0.0887
24,ACCAACTC,-0.0268
25,CCAGAAAC,0.0115

row,Sequence,PBM E-score
1,AGTCTAAA,-0.0551
2,CTTATACC,0.0334
3,CTTCCGAC,-0.248
4,GGGGCCCC,0.267
5,GTTTCGTA,0.149
6,AAGTTGCA,-0.0133
7,AAGCGGCA,0.044
8,GAAGCAAA,-0.118
9,AGTACGAT,0.0669
10,CGGGGCGA,-0.0348
11,AACCCAAG,0.0278
12,CAGTAGGC,0.00974
13,TGTACGAA,0.0242
14,GTTATATA,0.121
15,CCGCGCGA,0.202
16,ATCAACTC,0.0722
17,CTCGAGAC,0.205
18,CTATCGGC,0.0172
19,CGTTGTGC,-0.00609
20,AAGGCGAC,-0.0828
21,ACGGCAGT,-0.217
22,CACACTCG,0.0824
23,CAGCTGAC,0.176
24,GCAGGAGC,-0.234
25,CACGTCGC,0.00816

row,Sequence,PBM E-score
1,ATCCACAA,-0.0455
2,ATTCCTTC,0.121
3,GAGATATA,0.0014
4,AATACGGC,0.084
5,AGTTGTGA,0.0643
6,ACGAATAC,0.101
7,GGAAACAA,0.105
8,ACACCATG,-0.0445
9,CCAAACAA,0.0751
10,CCTTGTAA,-0.00975
11,ATTATTGC,0.129
12,CCGCCCGC,0.207
13,GATCAGAC,-0.0819
14,AAGCCTCG,-0.043
15,TAGATTAA,0.112
16,AGACTCTA,-0.177
17,CGAGCGTC,-0.0434
18,CCTTCGAA,0.0667
19,CCCGGCTC,-0.255
20,ACACTAAT,0.121
21,CGGCTGTC,-0.1
22,CCCCTGTA,0.144
23,CAATCAAA,0.082
24,AACAATCC,0.241
25,CTTCCATA,-0.275

# Reformatted with tabs: entries from further up
row	Sequence	PBM E-score
20	GGGTCTTA	0.0557
21	CACGGCAC	-0.238
22	ACAATCAG	-0.0138
23	ACGCCAGT	-0.0887
24	ACCAACTC	-0.0268
25	CCAGAAAC	0.0115
1	AGTCTAAA	-0.0551
2	CTTATACC	0.0334
3	CTTCCGAC	-0.248
4	GGGGCCCC	0.267
5	GTTTCGTA	0.149
6	AAGTTGCA	-0.0133
7	AAGCGGCA	0.044
8	GAAGCAAA	-0.118
9	AGTACGAT	0.0669
10	CGGGGCGA	-0.0348
11	AACCCAAG	0.0278
12	CAGTAGGC	0.00974
13	TGTACGAA	0.0242
14	GTTATATA	0.121
15	CCGCGCGA	0.202
16	ATCAACTC	0.0722
17	CTCGAGAC	0.205
18	CTATCGGC	0.0172
19	CGTTGTGC	-0.00609
20	AAGGCGAC	-0.0828
22	CACACTCG	0.0824
23	CAGCTGAC	0.176
24	GCAGGAGC	-0.234
25	CACGTCGC	0.00816
1	ATCCACAA	-0.0455
2	ATTCCTTC	0.121
3	GAGATATA	0.0014
4	AATACGGC	0.084
5	AGTTGTGA	0.0643
6	ACGAATAC	0.101
7	GGAAACAA	0.105
9	CCAAACAA	0.0751
10	CCTTGTAA	-0.00975
11	ATTATTGC	0.129
13	GATCAGAC	-0.0819
14	AAGCCTCG	-0.043
15	TAGATTAA	0.112
16	AGACTCTA	-0.177
17	CGAGCGTC	-0.0434
18	CCTTCGAA	0.0667
19	CCCGGCTC	-0.255
20	ACACTAAT	0.121
21	CGGCTGTC	-0.1
22	CCCCTGTA	0.144
23	CAATCAAA	0.082
24	AACAATCC	0.241
25	CTTCCATA	-0.275

# Next records

row,Sequence,PBM E-score
1,CAGGAAGG,-0.334
2,CAGGTAGA,-0.127
3,AGATGATG,0.162
4,ACCCCAGT,0.129
5,GTCGTTTA,-0.00227
6,GGGGGGCA,-0.4
7,GGCCGTTA,0.0362
8,ACGGGCTG,-0.105
9,AGTTAACG,0.0671
10,GGCTAGCC,-0.297
11,TGACCCCA,0.0468
12,CAGTCTAA,0.144
13,TCGGTAGA,-0.0262
14,AAAATCTT,-0.0461
15,AGAGGGAG,-0.218
16,CTTAGACC,-0.101
17,ACAGTGAG,-0.0725
18,ACCGGCAC,-0.0264
19,GCTCACTA,-0.044
20,CCTTCCAC,-0.103
21,AATTACCT,0.0249
22,GGGCATTA,-0.0626
23,CTTAGCTC,-0.107
24,CCTCTTCC,-0.223
25,ACTTGTAC,-0.0669

row,Sequence,PBM E-score
1,ATGGTAGC,-0.0451
2,GACGAACC,-0.0352
3,GCCCAGTA,-0.0593
4,TACCCTCA,0.00099
5,AGGGGCTC,-0.101
6,CCAGCGCA,-0.0719
7,GTTACAAA,0.123
8,AAGGTACC,-0.124
9,CGCGGTTC,0.0879
10,TAAGCGTA,-0.0836
11,GAGGCACA,-0.0967
12,AGGAGGCG,-0.208
13,CTATATAG,0.00641
14,AGCCTGCA,0.0137
15,ATTGCCGA,-0.0437
16,AGAATGGA,0.121
17,CTTCCCCA,-0.0627
18,CCAATTTA,0.185
19,CCAGTAAC,0.00285
20,AACGCCTC,-0.295
21,GGTGTACA,0.0285
22,CTAAAGTA,-0.124
